From patent US20170360949A1 (TIANJIN INSTITUTE OF INDUSTRIAL BIOTECHNOLOGY CHINESE …, published 2017)
These are yes or no findings as the source states them, for the method shown. Binding seen in cells or lysates may run through a third protein. Some entries that bind do so weakly or less than the wild type.

Target: Z1Z2 (two Ig domains at the N terminus of the titin molecule) (human)
Assay: complex formation by mixing in urea and dialysis, then co-purification

binding: binds
B1: TeN (N terminus of Telethonin, Cys mutated to Ser) (other)
chain: GAMATSELSSEVSEENSERREAFWAEWKDLTLSTRPEEGSSLHEEDTQRHETYHQQGQSQVLVQRSPWLMMRMGILGRGLQEYQLPYQRVLP
notes: also called polypeptide B
